Several values for one entry are separate records, joined by “and”; a condition that tells them apart may be missing. Equal values may be shown once. The list shows a part of the results. Single wells; the ratio to wells without odorant was worked out here, and repeats agree poorly.
Key:
Assay in all cases: odorant receptor activation (CRE luciferase / Renilla) (fold of no-odor wells); higher = more activation
Settings in all cases: 100 µM
OR2B8 Indel clone 1076 = test system: OR2B8 Indel clone 1076
OR2C1 C149W clone 1282 = test system: OR2C1 C149W clone 1282
[1] = test system: OR2C1 G16S/C149W/R229H clone 1408
[2] = test system: OR2C1 P58S/C149W clone 1409
OR2C1 clone 1406 = test system: OR2C1 clone 1406
OR2C1 clone 1407 = test system: OR2C1 clone 1407
[3] = test system: OR2C3 T20A/P68S/L289V clone 1454
OR2D2 clone 1235 = test system: OR2D2 clone 1235
OR2D3 L66I clone 1381 = test system: OR2D3 L66I clone 1381
OR2F1 clone 1082 = test system: OR2F1 clone 1082
OR2F2 A98V clone 1087 = test system: OR2F2 A98V clone 1087
[4] = test system: OR2G2 P24A/V120L/R236G clone 1349
OR2G2 clone 1385 = test system: OR2G2 clone 1385
OR2G3 clone 1328 = test system: OR2G3 clone 1328
OR2G3 clone 1382 = test system: OR2G3 clone 1382
OR2G6 clone 1487 = test system: OR2G6 clone 1487
OR2H1 clone 1393 = test system: OR2H1 clone 1393
[5] = test system: OR2H2 L30F/A48V clone 1061
OR2H2 clone 1066 = test system: OR2H2 clone 1066
OR2J2 T111A clone 1073 = test system: OR2J2 T111A clone 1073

| SMILES | odorant receptor activation (OR2B8 Indel clone 1076) | odorant receptor activation (OR2C1 C149W clone 1282) | odorant receptor activation [1] | odorant receptor activation [2] | odorant receptor activation (OR2C1 clone 1406) | odorant receptor activation (OR2C1 clone 1407) | odorant receptor activation [3] | odorant receptor activation (OR2D2 clone 1235) | odorant receptor activation (OR2D3 L66I clone 1381) | odorant receptor activation (OR2F1 clone 1082) | odorant receptor activation (OR2F2 A98V clone 1087) | odorant receptor activation [4] | odorant receptor activation (OR2G2 clone 1385) | odorant receptor activation (OR2G3 clone 1328) | odorant receptor activation (OR2G3 clone 1382) | odorant receptor activation (OR2G6 clone 1487) | odorant receptor activation (OR2H1 clone 1393) | odorant receptor activation [5] | odorant receptor activation (OR2H2 clone 1066) | odorant receptor activation (OR2J2 T111A clone 1073) |
| --- | --- | --- | --- | --- | --- | --- | --- | --- | --- | --- | --- | --- | --- | --- | --- | --- | --- | --- | --- | --- |
| CC(C)CC(=O)O [isovaleric acid] | 1.12 | 1.12 | 0.874 | 0.865 | 0.923 | 1.17 | 0.874 | 1.12 | 0.786 | 0.912 | 1.17 | 1.04 | 0.769 | 0.96 | 0.905 | 0.775 | 0.739 | 0.866 | 1.15 | 0.998 |
| CC(C)=CCCC(C)=CC=O [citral] | 1.11 | 1.01 | 0.335 | 0.375 | 0.337 | 0.432 | 0.932 | 1.29 | 0.339 | 1.31 | 1.03 | 1.1 | 0.162 | 1.16 | 0.318 | 1.57 | 0.18 | 1.07 | 1.24 | 3.74 |
| CC(C)C=O [isobutyraldehyde] | 0.952 | 0.9 and 0.993 | 1.01 | 0.841 | 0.793 | 0.855 | 0.713 | 0.979 | 0.712 | 8.18 | 1.15 | 1.2 | 0.921 | 1.46 and 1.1 | 0.819 | 0.866 and 1.06 | 0.852 | 0.749 | 1.34 | 1.23 |
| CC12CCC(C1)C(C)(C)C2=O (stereo not given) [fenchone] | 0.769 | 1.28 | 0.912 | 0.793 | 0.785 | 1.1 | 0.937 | 0.578 | 0.964 | 1.01 | 1.1 | 0.908 | 1.08 | 0.971 | 0.935 | 1.05 | 1.06 | 1.15 | 0.97 | 0.948 |
| C=CCc1ccc(OC(C)=O)c(OC)c1 [eugenol acetate] | 1.71 | 1.55 | 1.28 | 1.29 | 1.41 | 1.45 | 1.73 | 2.09 | 1.82 | 1.69 | 1.7 | 1.74 | 1.94 | 1.79 | 1.49 | 1.59 | 1.83 | 1.87 | 1.64 | 1.54 |
| CCCCO [1-butanol] | 4.47 | 1.21 | 1.25 | 0.994 | 1.19 | 1.14 | 1.18 | 0.785 | 0.565 | 3.11 | 18.2 | 1.25 | 1.65 | 0.987 | 2.17 | 0.881 | 1.11 | 2.92 | 3.42 | 1.99 |
| COc1cc(C)ccc1O [2-methoxy-4-methylphenol] | 1.85 | 0.959 | 1.42 | 1.73 | 1.11 | 0.85 | 0.826 | 0.857 | 0.514 | 1.28 | 12.2 | 0.861 | 1.53 | 0.893 | 1.08 | 0.778 | 0.996 | 1.27 | 2.37 | 2.42 |
| C=CCc1ccc(OC)c(OC)c1 [eugenol methyl ether] | 1.39 | 1.78 | 1.48 | 1.31 | 1.13 | 1.31 | 0.904 | 0.531 | 1.51 | 1.51 | 1.34 | 1.34 | 1.81 | 1.44 | 1.39 | 1.36 | 1.78 | 1.51 | 1.34 | 2.33 |
| C=CCSCC=C [diallyl sulfide] | 0.912 | 1.06 | 0.958 | 0.942 | 0.779 | 1.02 | 0.813 | 0.983 | 1.15 | 1.19 | 1.04 | 0.974 | 1.08 | 1.04 | 1.12 | 1.01 | 1.23 | 1 | 0.969 | 0.884 |
| CC(=O)C(C)=O [diacetyl] | 0.895 | 1.33 | 0.951 | 0.954 | 0.885 | 1.2 | 0.821 | 0.81 | 1.24 | 1.12 | 1.25 | 1.14 | 1.23 | 1.04 | 1.5 | 1.25 | 1.37 | 1.11 | 1.1 | 1.05 |
| CC(C)CCC(=O)O [4-methylvaleric acid] | 2.26 | 0.896 | 1.36 | 1.54 | 1.28 | 1.09 | 0.908 | 0.832 | 1.02 | 1.14 | 10.3 | 0.933 | 1.44 | 0.741 | 1.4 | 0.931 | 1.49 | 1.67 | 2.35 | 1.01 |
| CC(=O)OCC=C(C)CCC=C(C)C [geranyl acetate] | 1.33 | 0.877 and 1 | 1.28 | 0.951 | 1.05 | 0.895 | 1.39 | 0.953 | 1.06 | 12 | 1.03 | 2.22 and 1.17 | 1.27 | 0.606 and 0.769 | 1.13 | 0.999 and 1.28 | 1.09 | 1.17 | 2.45 | 1.42 |
| CC(C)C(=O)O [isobutyric acid] | 0.624 | 1.06 and 1.12 | 0.793 | 0.839 | 0.867 | 0.692 | 0.708 | 1.11 | 0.75 | 0.94 | 0.807 | 1.3 and 1.08 | 0.856 | 1.38 and 0.995 | 0.72 | 1.04 and 0.824 | 0.776 | 0.704 | 0.815 | 1.19 |

Whole records as entered above. Order of values: odorant receptor activation (OR2B8 Indel clone 1076)	odorant receptor activation (OR2C1 C149W clone 1282)	odorant receptor activation [1]	odorant receptor activation [2]	odorant receptor activation (OR2C1 clone 1406)	odorant receptor activation (OR2C1 clone 1407)	odorant receptor activation [3]	odorant receptor activation (OR2D2 clone 1235)	odorant receptor activation (OR2D3 L66I clone 1381)	odorant receptor activation (OR2F1 clone 1082)	odorant receptor activation (OR2F2 A98V clone 1087)	odorant receptor activation [4]	odorant receptor activation (OR2G2 clone 1385)	odorant receptor activation (OR2G3 clone 1328)	odorant receptor activation (OR2G3 clone 1382)	odorant receptor activation (OR2G6 clone 1487)	odorant receptor activation (OR2H1 clone 1393)	odorant receptor activation [5]	odorant receptor activation (OR2H2 clone 1066)	odorant receptor activation (OR2J2 T111A clone 1073)
`CC12CCC(C1)C(C)(C)C2=O` (stereo not given) [fenchone] in the list: 0.769	1.28	0.912	0.793	0.785	1.1	0.937	0.578	0.964	1.01	1.1	0.908	1.08	0.971	0.935	1.05	1.06	1.15	0.97	0.948
`C=CCSCC=C` [diallyl sulfide] in the list: 0.912	1.06	0.958	0.942	0.779	1.02	0.813	0.983	1.15	1.19	1.04	0.974	1.08	1.04	1.12	1.01	1.23	1	0.969	0.884
